Test results as given in article PMC7960600, “A DARPin targeting activated Mac-1 is a novel diagnostic tool and potential anti-inflammatory agent in myocarditis, sepsis and myocardial infarction” (Basic Research in Cardiology, 2021).
Results are given in words; binding and its absence hold for the method and conditions named. Some results given as binding are weak or reduced against the parent protein; the word gives no strength.

The chains behind the UniProt entries cited, without tags or fusion partners. Where a name states a change or a piece, a line headed by the entry shows the natural chain unless it says otherwise. Residues count along the entry.
UniProt P05555: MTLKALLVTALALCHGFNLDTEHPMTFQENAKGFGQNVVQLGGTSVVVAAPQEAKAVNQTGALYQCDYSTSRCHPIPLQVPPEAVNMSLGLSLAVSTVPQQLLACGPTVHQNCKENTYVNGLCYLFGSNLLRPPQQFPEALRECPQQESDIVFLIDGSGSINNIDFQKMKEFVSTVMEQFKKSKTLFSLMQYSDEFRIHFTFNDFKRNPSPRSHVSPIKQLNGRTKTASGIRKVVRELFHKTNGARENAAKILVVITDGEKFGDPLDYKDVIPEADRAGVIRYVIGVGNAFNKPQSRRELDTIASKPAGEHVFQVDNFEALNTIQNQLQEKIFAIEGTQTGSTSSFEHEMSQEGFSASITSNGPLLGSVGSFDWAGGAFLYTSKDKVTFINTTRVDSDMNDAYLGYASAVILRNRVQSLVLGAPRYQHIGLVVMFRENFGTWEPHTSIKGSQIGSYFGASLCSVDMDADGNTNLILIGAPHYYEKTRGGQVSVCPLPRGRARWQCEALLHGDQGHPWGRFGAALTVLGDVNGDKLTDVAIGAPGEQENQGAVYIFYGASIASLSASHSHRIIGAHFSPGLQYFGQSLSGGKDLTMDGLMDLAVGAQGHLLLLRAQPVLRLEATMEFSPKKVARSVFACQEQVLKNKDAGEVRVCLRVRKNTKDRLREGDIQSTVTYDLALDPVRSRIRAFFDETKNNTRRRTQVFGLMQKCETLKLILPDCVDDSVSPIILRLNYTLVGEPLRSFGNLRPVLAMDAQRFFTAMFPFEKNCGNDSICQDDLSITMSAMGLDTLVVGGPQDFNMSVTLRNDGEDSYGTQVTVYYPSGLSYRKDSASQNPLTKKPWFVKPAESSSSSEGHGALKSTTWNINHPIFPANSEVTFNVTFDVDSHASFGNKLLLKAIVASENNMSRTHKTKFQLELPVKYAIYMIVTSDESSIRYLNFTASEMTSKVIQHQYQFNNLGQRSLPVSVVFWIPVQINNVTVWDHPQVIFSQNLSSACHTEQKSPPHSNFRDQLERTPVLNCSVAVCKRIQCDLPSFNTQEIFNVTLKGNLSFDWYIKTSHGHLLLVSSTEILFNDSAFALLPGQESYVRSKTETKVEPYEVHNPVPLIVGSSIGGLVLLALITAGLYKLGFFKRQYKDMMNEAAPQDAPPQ
UniProt P11835: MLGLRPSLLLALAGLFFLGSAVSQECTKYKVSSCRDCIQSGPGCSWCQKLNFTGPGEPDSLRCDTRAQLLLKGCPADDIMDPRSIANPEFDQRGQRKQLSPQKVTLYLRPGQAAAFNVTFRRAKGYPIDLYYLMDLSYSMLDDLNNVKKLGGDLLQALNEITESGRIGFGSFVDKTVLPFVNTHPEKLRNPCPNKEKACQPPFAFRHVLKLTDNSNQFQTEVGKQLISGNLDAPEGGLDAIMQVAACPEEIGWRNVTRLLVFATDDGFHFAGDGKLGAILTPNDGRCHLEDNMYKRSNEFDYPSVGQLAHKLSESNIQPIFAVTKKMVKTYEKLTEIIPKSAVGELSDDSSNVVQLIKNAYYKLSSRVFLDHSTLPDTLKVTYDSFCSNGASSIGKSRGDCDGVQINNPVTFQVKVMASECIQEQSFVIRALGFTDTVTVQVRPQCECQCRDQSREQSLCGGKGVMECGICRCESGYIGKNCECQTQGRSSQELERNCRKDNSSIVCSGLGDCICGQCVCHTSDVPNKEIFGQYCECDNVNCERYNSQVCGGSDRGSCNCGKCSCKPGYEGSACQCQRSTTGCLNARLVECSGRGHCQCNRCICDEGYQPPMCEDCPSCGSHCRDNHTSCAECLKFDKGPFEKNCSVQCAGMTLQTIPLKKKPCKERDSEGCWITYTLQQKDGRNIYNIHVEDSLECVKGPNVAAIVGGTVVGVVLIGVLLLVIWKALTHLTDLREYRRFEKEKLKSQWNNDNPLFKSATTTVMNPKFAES
UniProt P13597, residues 28-485: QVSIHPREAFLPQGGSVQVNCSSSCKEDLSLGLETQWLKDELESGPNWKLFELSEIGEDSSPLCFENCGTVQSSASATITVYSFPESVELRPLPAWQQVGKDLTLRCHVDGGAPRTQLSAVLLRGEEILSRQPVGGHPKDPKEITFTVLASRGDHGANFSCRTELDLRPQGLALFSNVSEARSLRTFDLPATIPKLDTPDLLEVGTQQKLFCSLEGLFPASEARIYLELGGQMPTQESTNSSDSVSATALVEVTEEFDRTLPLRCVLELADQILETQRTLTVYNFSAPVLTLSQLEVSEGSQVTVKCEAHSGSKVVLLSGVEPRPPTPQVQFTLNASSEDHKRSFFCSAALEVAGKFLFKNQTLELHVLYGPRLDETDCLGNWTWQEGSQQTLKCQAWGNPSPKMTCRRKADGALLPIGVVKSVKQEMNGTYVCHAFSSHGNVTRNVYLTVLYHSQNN

Biological target: mouse Mac-1 (αMβ2, CD11b/CD18) on mouse monocytes (mouse (endogenous in RAW 264.7 cells and mouse monocytes)) (UniProt P05555+P11835)
Test: flow cytometry on cells; monocytes isolated from C57BL/6N mice, stimulated with PMA (10 ng/ml), stained with F7, control DARPin (5 µg/ml) or PBS, then incubated with rICAM (15 min, RT); FITC anti-ICAM-1 antibody; only the binder purified

In the case of “recombinant ICAM-1 (rICAM; Biolegend) (from UniProt P13597 28-485) (ligand)”, the binding is reported as “binds”.
